Measured values from PMC7336374.
These are yes or no findings as the source states them, for the method shown. For some assays here: In cells and extracts the contact can be indirect. Some results given as binding are weak or reduced against the parent protein; the word gives no strength. Sequences can lack the tags named with a protein. Each block holds one binder with its values, some of them ahead of it.

What was measured:
[1] = target: T1, LAX1, yeast two-hybrid fusion (rice (Oryza sativa L.)) (UniProt Q7XAQ6); assay: two-hybrid; OsPID in pGADT7, partners in pGBKT7, co-transformed into yeast strain AH109; growth on synthetic dropout medium without Trp, Leu, Ade and His at 28°C
T1 sequence: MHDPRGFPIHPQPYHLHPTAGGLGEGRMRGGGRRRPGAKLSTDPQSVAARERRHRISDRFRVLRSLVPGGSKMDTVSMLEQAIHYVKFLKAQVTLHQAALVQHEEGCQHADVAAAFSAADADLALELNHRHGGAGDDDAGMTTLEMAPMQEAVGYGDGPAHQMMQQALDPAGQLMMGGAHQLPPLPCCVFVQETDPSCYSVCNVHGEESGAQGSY

[2] = target: T2, OsMADS16, yeast two-hybrid fusion (rice (Oryza sativa L.)) (UniProt Q944S9); assay: as above
T2 sequence: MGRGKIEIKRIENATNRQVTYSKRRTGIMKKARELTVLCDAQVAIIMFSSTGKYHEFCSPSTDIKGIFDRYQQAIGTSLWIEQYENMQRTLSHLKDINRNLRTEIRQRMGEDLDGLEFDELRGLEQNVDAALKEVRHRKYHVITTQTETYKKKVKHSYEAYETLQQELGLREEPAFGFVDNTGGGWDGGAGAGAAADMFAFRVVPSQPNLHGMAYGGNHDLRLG

[3] = target: T3, GST-tagged OsMADS16 (rice (Oryza sativa L.)) (UniProt Q944S9); assay: pull-down; in vitro pull-down of HIS-tagged OsPID and GST-tagged partners expressed in E. coli BL21; which was held is not told
T3 sequence: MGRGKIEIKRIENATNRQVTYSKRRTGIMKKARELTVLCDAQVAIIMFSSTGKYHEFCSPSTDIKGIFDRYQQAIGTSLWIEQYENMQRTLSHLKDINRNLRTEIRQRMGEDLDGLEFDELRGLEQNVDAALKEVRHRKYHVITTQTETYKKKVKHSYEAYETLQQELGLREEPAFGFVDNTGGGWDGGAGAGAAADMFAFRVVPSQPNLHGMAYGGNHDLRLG

[4] = target: T4, OsMADS16, BiFC fusion in SCYCE (rice (Oryza sativa L.)) (UniProt Q944S9); assay: split reporter; BiFC: SCYNE(R)::OsPID with SCYCE fusions, Agrobacterium GV3101 with the p19 strain infiltrated into 4- to 6-week-old tobacco leaves; SCFP signal by confocal microscopy
T4 sequence: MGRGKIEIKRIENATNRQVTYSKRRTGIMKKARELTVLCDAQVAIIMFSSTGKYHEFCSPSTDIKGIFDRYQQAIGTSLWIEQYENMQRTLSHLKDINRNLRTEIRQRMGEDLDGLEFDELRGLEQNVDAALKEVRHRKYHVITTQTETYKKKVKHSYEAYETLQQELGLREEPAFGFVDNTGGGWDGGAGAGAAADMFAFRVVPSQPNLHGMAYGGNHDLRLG

[5] = target: T5, GFP-tagged OsMADS16 (rice (Oryza sativa L.)) (UniProt Q944S9); assay: co-IP; FLAG-tagged OsPID and GFP-tagged partners co-transformed into rice protoplasts; which was precipitated is not told
T5 sequence: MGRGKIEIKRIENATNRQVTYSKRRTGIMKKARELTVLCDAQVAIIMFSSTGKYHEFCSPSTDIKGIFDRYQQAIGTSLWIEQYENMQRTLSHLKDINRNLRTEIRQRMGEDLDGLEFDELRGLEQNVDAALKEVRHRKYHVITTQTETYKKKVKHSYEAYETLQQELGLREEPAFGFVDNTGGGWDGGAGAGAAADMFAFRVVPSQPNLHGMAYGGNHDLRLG

B2: HIS-tagged OsPINOID (OsPID) (protein, UniProt Q2QM77 1-484)
chain: MVAAVRAPVKPEMVELSPAAMERYSSDADTTAPNSSLSSAASSTGSLARCSSLSRLSFDCSPSAAVAAAATSCSPPRASVLLRPHRSGDVAWAAIRAASTTSAAPLGPRDFKLVRRIGGGDIGTVYLCRLRSSPERESPCMYAMKVVDRRAVARKQKLGRAAAEKRILRQLDHPFLPTLFADFDATPHFSCAVMEFCPGGDLHSLRHRMPSRRFPLPSARFYAAEVLLAIEYLHMMGIVYRDLKPENVLIRADGHIMLTDFDLSLQSTTSPSLDGDTDTDDEASGGASCFPDHLLRFKRRRNAVAAPRPRFVAEPVDARSCSFVGTHEYVAPEVASGGAHGAAVDWWAYGVFLYELIYGRTPFAGATNEATLRNIVRRPLAFPSGSGSCGPADADARDLIARLLAKDPAARLGSRRGAADVKSHPFFKSLNLALLRSSRPPVVPGAGAGAAPLHRSQSCKAAPTTPPPPTTTKPANATARFDLF
binding [3]: binds

B4: 3xFLAG-tagged OsPINOID (OsPID) (protein, UniProt Q2QM77 1-484)
chain: MVAAVRAPVKPEMVELSPAAMERYSSDADTTAPNSSLSSAASSTGSLARCSSLSRLSFDCSPSAAVAAAATSCSPPRASVLLRPHRSGDVAWAAIRAASTTSAAPLGPRDFKLVRRIGGGDIGTVYLCRLRSSPERESPCMYAMKVVDRRAVARKQKLGRAAAEKRILRQLDHPFLPTLFADFDATPHFSCAVMEFCPGGDLHSLRHRMPSRRFPLPSARFYAAEVLLAIEYLHMMGIVYRDLKPENVLIRADGHIMLTDFDLSLQSTTSPSLDGDTDTDDEASGGASCFPDHLLRFKRRRNAVAAPRPRFVAEPVDARSCSFVGTHEYVAPEVASGGAHGAAVDWWAYGVFLYELIYGRTPFAGATNEATLRNIVRRPLAFPSGSGSCGPADADARDLIARLLAKDPAARLGSRRGAADVKSHPFFKSLNLALLRSSRPPVVPGAGAGAAPLHRSQSCKAAPTTPPPPTTTKPANATARFDLF
binding [5]: binds

Results, then the binder that gave them:

binding [1]: binds
binding [2]: binds
B1: OsPINOID (OsPID), yeast two-hybrid fusion (protein, UniProt Q2QM77 1-484)
chain: MVAAVRAPVKPEMVELSPAAMERYSSDADTTAPNSSLSSAASSTGSLARCSSLSRLSFDCSPSAAVAAAATSCSPPRASVLLRPHRSGDVAWAAIRAASTTSAAPLGPRDFKLVRRIGGGDIGTVYLCRLRSSPERESPCMYAMKVVDRRAVARKQKLGRAAAEKRILRQLDHPFLPTLFADFDATPHFSCAVMEFCPGGDLHSLRHRMPSRRFPLPSARFYAAEVLLAIEYLHMMGIVYRDLKPENVLIRADGHIMLTDFDLSLQSTTSPSLDGDTDTDDEASGGASCFPDHLLRFKRRRNAVAAPRPRFVAEPVDARSCSFVGTHEYVAPEVASGGAHGAAVDWWAYGVFLYELIYGRTPFAGATNEATLRNIVRRPLAFPSGSGSCGPADADARDLIARLLAKDPAARLGSRRGAADVKSHPFFKSLNLALLRSSRPPVVPGAGAGAAPLHRSQSCKAAPTTPPPPTTTKPANATARFDLF

binding [4]: binds
B3: OsPINOID (OsPID), BiFC fusion in SCYNE(R) (protein, UniProt Q2QM77 1-484)
chain: MVAAVRAPVKPEMVELSPAAMERYSSDADTTAPNSSLSSAASSTGSLARCSSLSRLSFDCSPSAAVAAAATSCSPPRASVLLRPHRSGDVAWAAIRAASTTSAAPLGPRDFKLVRRIGGGDIGTVYLCRLRSSPERESPCMYAMKVVDRRAVARKQKLGRAAAEKRILRQLDHPFLPTLFADFDATPHFSCAVMEFCPGGDLHSLRHRMPSRRFPLPSARFYAAEVLLAIEYLHMMGIVYRDLKPENVLIRADGHIMLTDFDLSLQSTTSPSLDGDTDTDDEASGGASCFPDHLLRFKRRRNAVAAPRPRFVAEPVDARSCSFVGTHEYVAPEVASGGAHGAAVDWWAYGVFLYELIYGRTPFAGATNEATLRNIVRRPLAFPSGSGSCGPADADARDLIARLLAKDPAARLGSRRGAADVKSHPFFKSLNLALLRSSRPPVVPGAGAGAAPLHRSQSCKAAPTTPPPPTTTKPANATARFDLF
